# Measured values reported in patent US20140322315A1, “CYSTEAMINE AND/OR CYSTAMINE FOR TREATING ISCHEMIC INJURY” (The Regents of the University of California, priority 2011, published 2014).
# Several values for one entry are separate records, joined by “and”; a condition that tells them apart may be missing. Equal entries are not always repeated.
# Tested on: LAD artery ligation ischemia/reperfusion
# Assay: Myocardial ischemia/reperfusion (LAD artery ligation) in mice: infarct area, echocardiography
# Assay type: in vivo, mice (C57BL/6)
# Protocol: To analyze ischemic damage and treatment with cysteamine a study in mice (C57BL/6-Male-12 weeks, 25 g) that are either pre-treated or naïve to cysteamine bitartrate was performed as follows.
# Pre-treated animals received intra-peritoneal cysteamine, 60 mg/kg twice (120 mg/kg/day) 2 hours before surgery for LAD artery ligation. Following a 60 minute ligation period the obstruction was removed and another dose of cysteamine was given immediately at the time of reperfusion and also twice daily injections for 4 days following reperfusion. A control group received the same volumes of control IV solution injected instead of cysteamine. Acceptable volumes of blood were collected at baseline, and at predetermined time points after the ischemic insult in order to determine levels of surrogate markers of inflammation and plasma cysteamine. […] Before sacrifice, the LAD was re-occluded and Evan's Blue was injected through JVC in order to delineate the non-ischemic area. […] Echocardiography provided ventricular volume data as well as wall function. Hemodynamic studies provided muscle contractility data (specifically systolic data).
# So far seven mice were studied. Four received control solution and 3 received cysteamine. […] This is a reduction of 13%.
smiles,measurement,setting,value
"NCCS [cysteamine, Cysteamine]",AAR/LV (cysteamine) (%),MEAN of 3 mice,23.86%
same,AAR/LV (cysteamine) (%),individual mice (raw data),33.31% and 17.95% and 20.31%
